According to the supplement of paper PMC6078165:

System: BT20
Experiment: relative JC-1 red fluorescence (viability) vs pre-drug, coculture with fibroblast (fraction); higher = more viable cancer cells
Procedure: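 JC-1 labelled TNBC cells cocultured 1:1 (1,500 cells each) with CellTrace Violet stained primary or stromal fibroblasts in 384-well plates in FluoroBrite medium, treated with one of 42 anticancer drugs at 0.1, 1, 10 or 100 uM. JC-1 red fluorescence (mitochondrial integrity in cancer cells only) was read by plate reader every 8 h for 72 h. Values are normalised to each well's pre-drug value. The stock of one drug was tenfold lower, so its dose labels may be too high.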

O=c1[nH]cc(F)c(=O)[nH]1 [Fluorouracil]
relative JC-1 red fluorescence
Conditions | 8 h | 16 h | 24 h | 32 h | 40 h | 48 h | 56 h | 64 h | 72 h
10 µM, coculture fibroblast: C12385 | 0.909 | 0.832 | 0.774 | 0.716 | 0.663 | 0.621 | 0.601 | 0.576 | 0.554
10 µM, coculture fibroblast: H6013 | 0.9853 | 0.889 | 0.8479 | 0.8246 | 0.793 | 0.774 | 0.771 | 0.757 | 0.745
10 µM, coculture fibroblast: H6019 | 0.873 | 0.824 | 0.836 | 0.801 | 0.785 | 0.78 | 0.764 | 0.755 | 0.742
10 µM, coculture fibroblast: H6076 | 0.7454 | 0.9405 | 0.8751 | 0.84935 | 0.815 | 0.791 | 0.775 | 0.762 | 0.748
10 µM, coculture fibroblast: H6231 | 0.773 | 0.96 | 0.869 | 0.824 | 0.787 | 0.747 | 0.708 | 0.68 | 0.644
10 µM, coculture fibroblast: HADF | 0.865 | 0.927 | 0.874 | 0.847 | 0.782 | 0.732 | 0.694 | 0.666 | 0.622
10 µM, coculture fibroblast: HCFa | 0.9592 | 0.832 | 0.7657 | 0.7165 | 0.664 | 0.6292 | 0.599 | 0.579 | 0.545
10 µM, coculture fibroblast: HCPF | 0.913 | 0.947 | 0.875 | 0.831 | 0.78109 | 0.7396 | 0.699 | 0.678 | 0.632
10 µM, coculture fibroblast: HHSteC | 0.965 | 0.904 | 0.883 | 0.817 | 0.764 | 0.734 | 0.704 | 0.691 | 0.658
10 µM, coculture fibroblast: HMF | 0.9 | 0.872 | 0.765 | 0.704 | 0.6408 | 0.595 | 0.55 | 0.515 | 0.475
10 µM, coculture fibroblast: HPFa | 0.9323 | 0.85261 | 0.822 | 0.743 | 0.7074 | 0.6521 | 0.6319 | 0.60739 | 0.5725
10 µM, coculture fibroblast: HUF | 0.896 | 0.789 | 0.763 | 0.6816 | 0.632 | 0.593 | 0.5722 | 0.566 | 0.542
10 µM, coculture fibroblast: Hs5 | 0.812 | 0.93 | 0.868 | 0.833 | 0.788 | 0.753 | 0.719 | 0.689 | 0.679
10 µM, coculture fibroblast: Hs27A | 0.747 | 0.757 | 0.912 | 0.906 | 0.8494 | 0.837 | 0.8078 | 0.7907 | 0.7376
10 µM, coculture fibroblast: Hs343T | 0.85272 | 0.9241 | 0.7811 | 0.716 | 0.654 | 0.5982 | 0.536 | 0.508 | 0.457
10 µM, coculture fibroblast: WS1 | 0.88 | 0.806 | 0.731 | 0.66 | 0.6 | 0.569 | 0.539 | 0.504 | 0.483
100 µM, coculture fibroblast: C12385 | 0.87 | 0.811 | 0.801 | 0.746 | 0.691 | 0.665 | 0.63 | 0.61 | 0.591
100 µM, coculture fibroblast: H6013 | 0.925 | 0.882 | 0.834 | 0.8003 | 0.768 | 0.756 | 0.752 | 0.727 | 0.707
100 µM, coculture fibroblast: H6019 | 0.8431 | 0.801 | 0.78562 | 0.723 | 0.68 | 0.6598 | 0.631 | 0.60824 | 0.5945
100 µM, coculture fibroblast: H6076 | 0.924 | 0.815 | 0.765 | 0.7433 | 0.735 | 0.7251 | 0.727 | 0.731 | 0.731
100 µM, coculture fibroblast: H6231 | 0.843 | 0.881 | 0.772 | 0.727 | 0.682 | 0.64 | 0.613 | 0.585 | 0.564
100 µM, coculture fibroblast: HADF | 0.9563 | 0.926 | 0.858 | 0.842 | 0.829 | 0.787 | 0.748 | 0.719 | 0.678
100 µM, coculture fibroblast: HCFa | 0.914 | 0.84 | 0.799 | 0.736 | 0.695 | 0.67 | 0.646 | 0.622 | 0.587
100 µM, coculture fibroblast: HCPF | 0.9 | 0.885 | 0.811 | 0.761 | 0.724 | 0.677 | 0.642 | 0.606 | 0.582
100 µM, coculture fibroblast: HHSteC | 0.8907 | 0.811 | 0.775 | 0.7006 | 0.65924 | 0.623 | 0.60203 | 0.5791 | 0.5599
100 µM, coculture fibroblast: HMF | 0.845 | 0.9021 | 0.804 | 0.73 | 0.692 | 0.643 | 0.614 | 0.592 | 0.553
100 µM, coculture fibroblast: HPFa | 0.9437 | 0.859 | 0.857 | 0.782 | 0.758 | 0.718 | 0.699 | 0.677 | 0.638
100 µM, coculture fibroblast: HUF | 0.8859 | 0.7953 | 0.763 | 0.691 | 0.634 | 0.594 | 0.58 | 0.559 | 0.54
100 µM, coculture fibroblast: Hs5 | 0.861 | 0.865 | 0.804 | 0.7418 | 0.707 | 0.672 | 0.644 | 0.623 | 0.598
100 µM, coculture fibroblast: Hs27A | 0.881 | 0.764 | 0.819 | 0.858 | 0.788 | 0.817 | 0.784 | 0.893 | 0.847
100 µM, coculture fibroblast: Hs343T | 0.888 | 0.841 | 0.746 | 0.681 | 0.632 | 0.583 | 0.538 | 0.511 | 0.48
100 µM, coculture fibroblast: WS1 | 0.8309 | 0.781 | 0.737 | 0.673 | 0.616 | 0.589 | 0.559 | 0.516 | 0.493

The reference is the same well before dosing, and untreated signal decays as well.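 Fibroblast labels name human fibroblasts: mostly primary ones from tissues such as uterus (C12385, HUF), lung (H6013), bone (Hs27A), adrenal (HADF) and skin (WS1), plus mammary HMF and breast cancer-associated Hs343T. The cancer cells are basal-like or mesenchymal-like triple-negative breast cancer lines. The paper calls a changed response a hit when it shifts by more than 3x the replicate standard deviation. The tissue of the other fibroblasts is not given here.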
